60 molecules from PubChem BioAssay AID2685 (National Center for Advancing Translational Sciences (NCATS), 2010) can be followed below.

The assay can be described thus: qHTS Assay for Lipid Storage Modulators in Drosophila S3 Cells.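 On cell number change: cells counted by Cell Tracker Red CMTPX staining in the red channel.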 The following applies: BODIPY lipid droplet fluorescence, 18-24 h; for cell number change: measured here: cell count max response, cells fed with added oleic acid. In outline: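 Drosophila S3 cells loaded with oleic acid (400 uM, as added) and compounds at several concentrations; lipid droplets imaged by 488-nm laser-scanning cytometry, 500–530 nm intensity and object ratio to cell channel. Percent activity normalized to 20 uM Triacsin C.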
On the technique in general: In qHTS, concentration-response curves come from the screen itself.

Where [1] appears, read: measured here: cell number channel AC50, cells fed with added oleic acid.
The mark [2] stands for this setting: measured here: lipid fluorescence (Fed channel) AC50, cells fed with added oleic acid.

The list shows a part of the results. These are further read-outs of the screen, such as a control signal, another cell line or another target. No call is given for them. Most of these compounds were active or inconclusive in the main read-out, so they are no random draw. Potencies come from curve fits of mixed quality, noted in brackets.

Take `O=C(CSc1nc(C2CC2)nc2ccccc12)NCc1ccc2c(c1)OCO2`: the cell number change was -13.1%. Further, under setting [1], the AC50 was 5.8 µM [falling, single point].
`O=C(O)/C=C\C(=O)Nc1ccc(OC(F)F)cc1`: the cell number change was -7.23%. Besides, the AC50 under setting [2] is 0.164 µM [falling, full curve].
As for `Cc1cc(C)nc(N2CCC(C(=O)NCc3cccc(C(F)(F)F)c3)CC2)n1`, the cell number change is -18.6%. Moreover, under setting [1], the AC50 is 0.259 µM [falling, full curve, poor fit]. The half-maximal activity concentration (AC50) under setting [2] is 29.1 µM [falling, single point].
Take `Cc1[nH]c2ccccc2c1/C=C(\C#N)C(=O)NCc1ccccc1`: the cell number change stood at 22.9%. Moreover, the concentration at half-maximal activity (AC50) under setting [2] is 2.91 µM [rising, partial curve].
Consider `COc1ccc2nc(NC(=O)C3CCCN3S(=O)(=O)c3ccc(C)cc3)sc2c1` (centres undefined), for which the cell number change was -10.8%.
Regarding `CCC(C)c1ccccc1NC(=O)C(C)OC(=O)CN1C(=O)NC(C)(C)C1=O` (centres undefined), the cell number change is 13%. Under setting [2], the concentration at half-maximal activity (AC50) is 0.461 µM [rising, full curve].
Turning to `O=C(O)c1ccccc1-n1cccc1C(=O)O`, the cell number change is -46.4%. The concentration at half-maximal activity (AC50) under setting [1] was 0.00461 µM [falling, full curve, poor fit].
For `CCOC(=O)/C=C/C(=O)Nc1cc(S(=O)(=O)Nc2ccc(OC)cc2)ccc1N1CCOCC1`, the cell number change came out at 3.14%. Besides, the AC50 under setting [2] was 18.4 µM [falling, single point].
As to `Cc1ccc(NC(=O)C(C)N2C(=O)C3C4CC(C(Br)C4Br)C3C2=O)cc1` (centres undefined), the cell number change was -1.63%. Under setting [2], the AC50 is 4.61 µM [falling, single point].
Consider `O=C(/C=C/c1ccc(F)cc1)NC(=S)Nc1ccccc1`, for which the cell number change turned out to be 55.3%. Further, under setting [1], the AC50 was 0.58 µM [rising, full curve, poor fit]. The half-maximal activity concentration (AC50) under setting [2] was 23.1 µM [rising, partial curve, poor fit].
On to `CCOC(=O)C1CCN(Cc2cnc(Oc3ccc(Cl)cc3C)s2)CC1`, for which the cell number change was -0.287%. Under setting [2], the AC50 is 6.51 µM [falling, single point].
For `COc1ccc([N+](=O)[O-])cc1NC(=O)Nc1ccccc1`, the cell number change came out at 2.44%. Under setting [2], the AC50 is 20.6 µM [rising, single point].
With `O=S1(=O)CCN2N=C(C34CC5CC(CC(C5)C3)C4)SC2=N1`, the cell number change was 28.9%. For the same molecule, the AC50 under setting [2] was 29.1 µM [rising, partial curve, poor fit].
For `CC(=O)c1cccc(NC(=O)NCc2cccs2)c1`, the cell number change came out at 30.1%. The AC50 under setting [1] is 25.9 µM [rising, single point]. Besides, the AC50 under setting [2] is 25.9 µM [rising, partial curve, poor fit].
For the molecule `Cc1occc1C(=O)Nc1cccc(C(=O)NCc2ccccc2)c1`, the AC50 under setting [1] was 2.31 µM [rising, partial curve].
`CC1(C)CC(NC(=O)c2c(N)no[n+]2[O-])CC(C)(C)N1`: the cell number change is -49.3%. In addition, the AC50 under setting [1] is 20.6 µM [falling, single point]. Besides, under setting [2], the AC50 is 18.4 µM [falling, single point].
As for `O=C(CCNS(=O)(=O)c1ccccc1)N1CCN(c2ccccc2)CC1`, the cell number change worked out at 36.6%. Further, the AC50 under setting [1] was 32.6 µM [rising, partial curve, poor fit]. For the same molecule, the AC50 under setting [2] was 32.6 µM [rising, single point].
On to `OC(c1ccccc1)c1nccn1Cc1ccccc1` (centres undefined), for which the cell number change is -176%. Further, the AC50 under setting [2] is 29.1 µM [falling, single point].
For `COC(=O)c1c(NC(=O)c2ccc(Br)s2)sc2c1CCC2`, the cell number change came out at 0.647%. Further, the AC50 under setting [2] is 0.517 µM [rising, partial curve].
As to `CCN(C(=O)COC(=O)COc1ccc2c(C)cc(=O)oc2c1)C1CCS(=O)(=O)C1` (centres undefined), the AC50 under setting [2] was 29.1 µM [falling, single point].
For `COc1cccc(NC(=O)CCc2nnc3ccc(NCc4ccco4)nn23)c1`, the cell number change was -9.48%. Moreover, under setting [2], the AC50 was 18.4 µM [falling, partial curve, poor fit].
For `CCCCN(C(=O)c1cc2ccccc2o1)c1c(N)n(CCCC)c(=O)[nH]c1=O`, the cell number change was determined as 5.06%.
As for `O=C(NC(=S)Nc1ccc(S(=O)(=O)N2CCOCC2)cc1)c1ccccc1[N+](=O)[O-]`, the cell number change is 118%. In addition, under setting [1], the AC50 was 29.1 µM [rising, single point]. Further, the AC50 under setting [2] is 29.1 µM [rising, partial curve].
On to `CN1CCN(c2ccc(NC(=O)c3ccc(Oc4ccccc4)cc3)cc2)CC1`, for which the cell number change is 0.952%.
With `Cc1ccc(S(=O)(=O)N(C)c2ccc(C(=O)Nc3ccccc3C(=O)N3CCOCC3)cc2)cc1`, the cell number change is -1.62%. The AC50 under setting [2] is 29.1 µM [rising, partial curve].
On to `COC(=O)c1cc(C)sc1NC(=O)C1CC=CCC1C(=O)O` (centres undefined), for which the cell number change came out at 60%. For the same molecule, the AC50 under setting [1] was 14.6 µM [rising, single point]. Also, under setting [2], the AC50 was 0.058 µM [falling, full curve, poor fit].
Turning to `COc1cccc(C(=O)Nc2ccc3c(c2)C(=O)c2ccccc2C3=O)c1`, the cell number change was -29%. Further, the concentration at half-maximal activity (AC50) under setting [2] was 10.3 µM [falling, partial curve, poor fit].
Turning to `Cc1cccc(OCC(O)CN2CCN(CCN3C(=O)c4cccc5cccc(c45)C3=O)CC2)c1C` (centres undefined), the cell number change is -43.7%.
Same read-out and setting: next, `CC1CCN(S(=O)(=O)c2cc(Cl)ccc2Br)CC1`: 0.86%; `NC(=O)CC(NC(=O)c1ccccc1)c1ccc(N2CCN(c3ccccc3)CC2)c([N+](=O)[O-])c1` (centres undefined): -15.2%.
Take `Cc1cccc2c(=O)cc(C)n(CC(=O)N3CCOCC3)c12`: the half-maximal activity concentration (AC50) is, setting by setting: under setting [1], 1.46 µM [rising, single point]; under setting [2], 5.8 µM [rising, single point].
Take `O=C(CCc1nc2ccccc2c(=O)[nH]1)OCc1nnc(-c2ccccc2)o1`: the cell number change was found to be 3.97%. For the same molecule, the AC50 under setting [2] is 18.4 µM [rising, partial curve, poor fit].
Turning to `CC1C(=O)Nc2ccccc2N1C(=O)c1ccc(F)cc1` (centres undefined), the cell number change amounted to 20.4%. In addition, the AC50 under setting [2] was 0.116 µM [rising, full curve, poor fit].
In the case of `O=C(COC(=O)c1ccc(F)c(S(=O)(=O)N2CCOCC2)c1)c1ccc(Br)cc1`, the cell number change is -10.3%.
Turning to `CCC(C(=O)c1ccc2ncccc2c1)c1ccccc1` (centres undefined), the cell number change was 0.481%. Further, the AC50 under setting [2] was 5.8 µM [falling, partial curve].
Turning to `O=C(CC1SC(=Nc2ccccc2)N(Cc2ccccn2)C1=O)Nc1ccc(Br)cc1` (centres undefined), the cell number change is -2.15%. In addition, the AC50 under setting [2] is 18.4 µM [falling, single point].
On to `COc1ccc(C(CNC(=O)Cc2cccs2)N(C)C)cc1` (centres undefined), for which the cell number change was determined as 3.33%.
The same measure, in the same setting: next, `CCCN(CCC)CCCOC(=O)c1ccc(Cl)cc1Cl`: -30.3%; `COc1cccc(CN2C(=O)CCC2(C)C(=O)NCCc2ccc(OC)c(OC)c2)c1` (centres undefined): 25.2%.
`CN(C)S(=O)(=O)c1cccc(NC(=O)c2cc3ccccc3o2)c1`: the AC50 under setting [2] was 0.461 µM [rising, full curve].
Take `CNC(=O)c1nnsc1S(=O)(=O)c1ccc(Cl)cc1`: the cell number change is -48.2%. The AC50 under setting [1] is 5.8 µM [falling, full curve].
As to `Cc1ccccc1NC(=O)CSc1nc2[nH]c(=O)cc(O)c2s1`, the cell number change worked out at 122%. Also, the AC50 under setting [2] was 29.1 µM [rising, single point].
Take `Cc1ccc(NS(=O)(=O)c2ccc3[nH]c(=O)c(=O)[nH]c3c2)cc1Cl`: the cell number change amounted to 4.37%. Also, the AC50 under setting [2] was 14.6 µM [falling, partial curve].
Take `COC(=O)/C(=N\Nc1ccc(Cl)cc1)Sc1nnc(-c2ccc(OC)cc2)n1C`: the cell number change came to 74.6%. Moreover, the half-maximal activity concentration (AC50) under setting [1] was 9.2 µM [rising, partial curve]. In addition, the concentration at half-maximal activity (AC50) under setting [2] is 2.06 µM [rising, full curve, poor fit].
`COc1cccc(Nc2nc3ccc(C(=O)c4ccccc4)cc3n3cnnc23)c1`: the cell number change was -12.6%. Moreover, the AC50 under setting [2] was 29.1 µM [falling, single point].
In the case of `CCCCN1C(=O)C(=O)N(CC(=O)NC2CCCc3ccccc32)C1=O` (centres undefined), the AC50 under setting [2] was 0.103 µM [rising, single point].
As for `Cc1c(C(=O)Nc2ccncc2)sc2nc(-c3ccc(F)cc3)cn12`, the AC50 was 1.84 µM [rising, partial curve] under setting [1] and 1.64 µM [rising, partial curve] under setting [2].
On to `Nc1nc(CN2CCN(c3ccccc3)CC2)nc(N2CCCc3ccccc32)n1`, for which the cell number change is -0.128%.
As to `Cc1ccc(CNC(=O)c2cc(-c3ccccc3)nn2Cc2cc(C)no2)cc1`, the cell number change was -17.4%. Further, the AC50 under setting [2] is 10.3 µM [falling, partial curve].
Take `O=C(O)c1ccccc1-c1nc2ccccc2n1-c1ccccc1`: the cell number change is -20.4%. Besides, the AC50 under setting [2] was 25.9 µM [falling, partial curve].
With `COc1cc(C(=O)Nc2cc(-c3nc4cc(C)ccc4o3)ccc2C)cc(OC)c1OC`, the cell number change was determined as 11.5%. In addition, under setting [2], the AC50 was 2.59 µM [rising, partial curve].
Take `CN(C)C(=O)c1ccc(NC(=O)COC(=O)C2CCN(S(=O)(=O)c3ccc4c(c3)OCCO4)CC2)cc1`: the cell number change was -2.81%.
Regarding `COc1ccc(C(=O)COC(=O)CCN2C(=O)C3C4CCC(C4)C3C2=O)cc1` (centres undefined), the cell number change is -22.6%. Under setting [2], the AC50 is 16.4 µM [falling, partial curve].
`O=[N+]([O-])c1ccc(SCCO)nc1SCCO`: the cell number change is -37.4%. The concentration at half-maximal activity (AC50) under setting [1] was 2.59 µM [falling, full curve]. Also, the AC50 under setting [2] is 2.91 µM [falling, full curve].
For the molecule `CC1(C)CC(=O)C(c2c[nH]c3ccccc23)C(=O)C1`, the cell number change stood at 31.3%. Also, under setting [1], the AC50 is 32.6 µM [rising, single point].
Take `COc1ccc(/C=N/N2CCN(c3ccc(Cl)cc3)CC2)cc1O`: the cell number change is 8.4%. Under setting [2], the AC50 was 23.1 µM [rising, single point].
As to `CCCCNC(=O)CCC(=O)Nc1ccc2nc(N3CCN(C)CC3)cc(C)c2c1`, the cell number change was found to be 10.4%. Further, the AC50 under setting [1] was 0.461 µM [falling, single point]. The AC50 under setting [2] is 0.517 µM [falling, single point].
For `CCN1CCN(S(=O)(=O)CC2(C)C3CCC2(C)C(=O)C3Br)CC1` (centres undefined), the cell number change was -11.2%.
As for `CC1C(=O)Nc2ccc(S(=O)(=O)NCc3ccc(Cl)cc3)cc2NC1=O` (centres undefined), the cell number change came to 7.78%. The AC50 under setting [2] is 0.058 µM [falling, full curve, poor fit].
As to `O=C(Nc1cccc(-c2cn3c(n2)SCC3)c1)c1ccc2ccccc2n1`, the cell number change turned out to be 41.5%. Moreover, under setting [1], the concentration at half-maximal activity (AC50) is 29.1 µM [rising, single point]. For the same molecule, the AC50 under setting [2] was 5.8 µM [rising, full curve].

In general, AC50 refers to the concentration giving half of the maximal activity seen. Low values mean activity at low concentration, high ones activity only at high concentration.
